Source: article PMC5897396
These are yes or no findings as the source states them, for the method shown. Binding seen in cells or lysates may run through a third protein. Some binding calls cover weakened binding; strength is not graded here.

Protein sequences, listed by entry. Tags and fused reporters are not part of them. Residues count along the entry.
UniProt Q62656, residues 25-2316: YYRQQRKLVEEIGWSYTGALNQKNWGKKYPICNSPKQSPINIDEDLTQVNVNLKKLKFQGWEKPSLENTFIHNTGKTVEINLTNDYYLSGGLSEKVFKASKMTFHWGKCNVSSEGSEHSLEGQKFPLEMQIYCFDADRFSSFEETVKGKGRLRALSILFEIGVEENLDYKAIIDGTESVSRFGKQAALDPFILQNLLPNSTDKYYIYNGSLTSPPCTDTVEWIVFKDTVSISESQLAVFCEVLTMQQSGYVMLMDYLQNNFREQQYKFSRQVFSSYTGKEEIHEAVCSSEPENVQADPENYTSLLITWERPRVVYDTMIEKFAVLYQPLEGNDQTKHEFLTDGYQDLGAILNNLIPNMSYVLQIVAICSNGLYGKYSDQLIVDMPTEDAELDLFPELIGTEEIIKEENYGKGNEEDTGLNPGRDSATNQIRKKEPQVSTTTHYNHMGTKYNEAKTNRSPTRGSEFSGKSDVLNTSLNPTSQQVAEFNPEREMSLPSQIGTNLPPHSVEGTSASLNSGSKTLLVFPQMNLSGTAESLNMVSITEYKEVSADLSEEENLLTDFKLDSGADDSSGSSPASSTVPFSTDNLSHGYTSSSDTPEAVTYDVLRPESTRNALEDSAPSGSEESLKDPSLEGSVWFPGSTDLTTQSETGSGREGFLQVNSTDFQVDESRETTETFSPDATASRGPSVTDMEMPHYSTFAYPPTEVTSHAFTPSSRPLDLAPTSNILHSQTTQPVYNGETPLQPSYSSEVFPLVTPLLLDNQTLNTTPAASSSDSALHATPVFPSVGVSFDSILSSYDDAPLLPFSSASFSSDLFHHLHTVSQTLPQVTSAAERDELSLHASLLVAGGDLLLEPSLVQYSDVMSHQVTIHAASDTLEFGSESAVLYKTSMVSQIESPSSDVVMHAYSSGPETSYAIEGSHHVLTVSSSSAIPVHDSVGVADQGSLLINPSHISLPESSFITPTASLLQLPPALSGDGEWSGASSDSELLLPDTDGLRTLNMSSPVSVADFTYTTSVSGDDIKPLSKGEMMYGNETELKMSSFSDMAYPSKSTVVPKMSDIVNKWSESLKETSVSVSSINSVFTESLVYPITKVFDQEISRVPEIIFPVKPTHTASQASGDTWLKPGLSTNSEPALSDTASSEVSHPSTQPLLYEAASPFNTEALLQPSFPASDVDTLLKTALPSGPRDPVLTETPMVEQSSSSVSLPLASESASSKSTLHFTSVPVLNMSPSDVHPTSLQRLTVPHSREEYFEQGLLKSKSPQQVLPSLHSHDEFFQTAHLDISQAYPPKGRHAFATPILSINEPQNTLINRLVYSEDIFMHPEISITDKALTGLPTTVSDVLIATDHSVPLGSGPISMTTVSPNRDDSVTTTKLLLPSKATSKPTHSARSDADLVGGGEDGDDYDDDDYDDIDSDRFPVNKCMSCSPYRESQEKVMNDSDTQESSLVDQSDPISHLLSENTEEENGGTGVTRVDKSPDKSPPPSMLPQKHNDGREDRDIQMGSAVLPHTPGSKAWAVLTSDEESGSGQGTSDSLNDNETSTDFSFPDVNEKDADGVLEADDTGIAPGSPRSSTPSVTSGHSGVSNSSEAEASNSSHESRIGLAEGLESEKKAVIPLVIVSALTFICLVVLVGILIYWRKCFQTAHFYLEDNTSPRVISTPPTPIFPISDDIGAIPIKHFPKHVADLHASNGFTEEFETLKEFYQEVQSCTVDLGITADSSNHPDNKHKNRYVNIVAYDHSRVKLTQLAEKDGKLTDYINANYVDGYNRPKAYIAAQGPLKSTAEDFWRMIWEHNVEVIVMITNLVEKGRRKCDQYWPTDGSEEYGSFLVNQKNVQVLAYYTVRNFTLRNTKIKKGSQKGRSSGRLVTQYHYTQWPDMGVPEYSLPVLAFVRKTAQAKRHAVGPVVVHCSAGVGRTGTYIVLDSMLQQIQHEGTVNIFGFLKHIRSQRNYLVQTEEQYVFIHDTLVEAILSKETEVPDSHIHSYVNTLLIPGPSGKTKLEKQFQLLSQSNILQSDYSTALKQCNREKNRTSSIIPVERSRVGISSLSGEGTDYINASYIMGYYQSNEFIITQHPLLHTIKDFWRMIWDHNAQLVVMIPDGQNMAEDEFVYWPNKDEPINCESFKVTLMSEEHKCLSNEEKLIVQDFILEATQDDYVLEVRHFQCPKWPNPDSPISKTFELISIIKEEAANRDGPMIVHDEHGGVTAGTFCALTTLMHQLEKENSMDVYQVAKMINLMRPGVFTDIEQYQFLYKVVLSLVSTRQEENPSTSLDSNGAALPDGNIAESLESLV
UniProt P23471, residues 25-2315: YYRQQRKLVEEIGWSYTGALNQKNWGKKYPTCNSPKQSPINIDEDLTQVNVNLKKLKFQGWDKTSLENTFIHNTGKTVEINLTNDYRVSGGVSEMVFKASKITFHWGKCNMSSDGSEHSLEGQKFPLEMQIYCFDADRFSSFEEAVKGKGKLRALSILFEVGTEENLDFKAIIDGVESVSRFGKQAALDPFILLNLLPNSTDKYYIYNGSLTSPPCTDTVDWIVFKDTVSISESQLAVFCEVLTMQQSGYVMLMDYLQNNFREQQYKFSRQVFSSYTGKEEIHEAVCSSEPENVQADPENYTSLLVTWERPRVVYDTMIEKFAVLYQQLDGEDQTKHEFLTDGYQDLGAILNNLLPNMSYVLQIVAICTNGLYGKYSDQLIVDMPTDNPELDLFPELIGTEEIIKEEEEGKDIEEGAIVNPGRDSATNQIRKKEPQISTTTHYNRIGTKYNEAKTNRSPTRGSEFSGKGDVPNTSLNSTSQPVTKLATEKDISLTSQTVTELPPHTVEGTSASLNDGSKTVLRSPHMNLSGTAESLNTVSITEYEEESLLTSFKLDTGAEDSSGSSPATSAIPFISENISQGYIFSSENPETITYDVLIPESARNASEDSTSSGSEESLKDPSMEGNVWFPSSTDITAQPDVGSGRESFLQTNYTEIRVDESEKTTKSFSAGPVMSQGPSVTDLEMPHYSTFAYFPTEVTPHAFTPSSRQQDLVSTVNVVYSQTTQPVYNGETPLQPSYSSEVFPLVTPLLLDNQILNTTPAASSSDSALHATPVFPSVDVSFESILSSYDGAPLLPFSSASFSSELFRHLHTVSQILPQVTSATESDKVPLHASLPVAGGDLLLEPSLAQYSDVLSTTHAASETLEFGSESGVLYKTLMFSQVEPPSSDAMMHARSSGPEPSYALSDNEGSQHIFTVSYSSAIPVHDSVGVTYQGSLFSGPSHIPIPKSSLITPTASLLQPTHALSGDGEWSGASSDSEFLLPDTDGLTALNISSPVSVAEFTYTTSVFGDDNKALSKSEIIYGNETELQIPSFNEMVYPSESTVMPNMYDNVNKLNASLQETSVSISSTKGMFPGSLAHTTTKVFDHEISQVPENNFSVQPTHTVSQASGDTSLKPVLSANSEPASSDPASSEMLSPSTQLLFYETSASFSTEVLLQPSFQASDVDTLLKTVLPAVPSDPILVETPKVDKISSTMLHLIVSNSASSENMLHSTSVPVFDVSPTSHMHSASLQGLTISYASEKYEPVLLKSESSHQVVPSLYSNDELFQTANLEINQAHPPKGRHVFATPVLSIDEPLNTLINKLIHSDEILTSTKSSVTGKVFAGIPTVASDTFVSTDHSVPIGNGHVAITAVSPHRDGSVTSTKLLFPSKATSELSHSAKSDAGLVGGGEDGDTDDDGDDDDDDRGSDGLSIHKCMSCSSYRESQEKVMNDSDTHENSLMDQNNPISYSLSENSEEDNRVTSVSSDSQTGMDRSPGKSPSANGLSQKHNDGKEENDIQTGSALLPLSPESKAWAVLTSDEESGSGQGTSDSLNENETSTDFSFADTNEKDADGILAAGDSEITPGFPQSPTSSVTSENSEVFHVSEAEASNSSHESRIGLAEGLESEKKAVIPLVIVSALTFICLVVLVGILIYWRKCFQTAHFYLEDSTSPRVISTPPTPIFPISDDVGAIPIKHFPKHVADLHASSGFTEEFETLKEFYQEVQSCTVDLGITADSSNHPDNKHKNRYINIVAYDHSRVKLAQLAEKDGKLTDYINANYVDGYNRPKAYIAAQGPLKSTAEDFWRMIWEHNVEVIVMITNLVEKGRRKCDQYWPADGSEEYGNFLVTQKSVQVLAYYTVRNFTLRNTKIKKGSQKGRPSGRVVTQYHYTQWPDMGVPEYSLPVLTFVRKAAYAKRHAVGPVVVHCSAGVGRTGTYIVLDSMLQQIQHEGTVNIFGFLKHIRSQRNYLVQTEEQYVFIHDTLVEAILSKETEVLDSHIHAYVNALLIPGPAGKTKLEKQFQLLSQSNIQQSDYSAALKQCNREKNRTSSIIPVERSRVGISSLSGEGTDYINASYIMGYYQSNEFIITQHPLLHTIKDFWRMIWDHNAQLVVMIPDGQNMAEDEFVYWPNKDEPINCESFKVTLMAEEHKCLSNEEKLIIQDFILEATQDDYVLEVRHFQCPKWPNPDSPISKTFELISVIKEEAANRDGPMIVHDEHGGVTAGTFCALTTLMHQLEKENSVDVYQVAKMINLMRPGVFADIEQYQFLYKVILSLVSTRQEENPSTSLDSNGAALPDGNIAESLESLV
UniProt P61810: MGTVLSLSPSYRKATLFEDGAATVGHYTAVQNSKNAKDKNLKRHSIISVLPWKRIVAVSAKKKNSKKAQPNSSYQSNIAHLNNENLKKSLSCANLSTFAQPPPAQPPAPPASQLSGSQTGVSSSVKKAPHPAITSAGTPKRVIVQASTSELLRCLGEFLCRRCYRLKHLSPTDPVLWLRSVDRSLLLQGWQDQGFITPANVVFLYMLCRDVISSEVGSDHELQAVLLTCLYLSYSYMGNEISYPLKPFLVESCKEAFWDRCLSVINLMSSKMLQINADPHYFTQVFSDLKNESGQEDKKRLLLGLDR
UniProt Q15078: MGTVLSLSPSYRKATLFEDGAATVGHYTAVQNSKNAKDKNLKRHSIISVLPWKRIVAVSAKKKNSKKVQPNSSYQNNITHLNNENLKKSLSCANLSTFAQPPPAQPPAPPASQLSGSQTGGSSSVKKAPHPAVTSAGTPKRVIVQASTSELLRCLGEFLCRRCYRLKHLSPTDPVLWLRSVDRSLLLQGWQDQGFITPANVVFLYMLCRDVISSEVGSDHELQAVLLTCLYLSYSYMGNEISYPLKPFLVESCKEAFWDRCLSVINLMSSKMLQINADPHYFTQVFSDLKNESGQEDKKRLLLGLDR

Tests used:
[1] = biological target: receptor protein tyrosine phosphatase beta/zeta (rat glioma C6 cells) (rat (endogenous in C6)) (UniProt Q62656); test: co-IP; rat glioma C6 cells; p35 and CDK5 co-immunoprecipitated with RPTPβ/ζ (Supplementary Fig. S2)
[2] = biological target: receptor protein tyrosine phosphatase beta/zeta (human (endogenous in HUVEC)) (UniProt P23471); test: proximity ligation; in situ PLA (Duolink) in fixed HUVEC, in the absence or presence of exogenous PTN (100 ng/ml) for 10 min
[3] = biological target: receptor protein tyrosine phosphatase beta/zeta (human (endogenous in HUVEC)) (UniProt P23471); test: co-IP; HUVEC lysates (PBS, 1% Triton X-100, 0.1% SDS, 5 mM EDTA) immunoprecipitated with antibodies for RPTPβ/ζ, p35 or CDK5, 16 h at 4 °C, protein A/G agarose, Western blot; IgG as negative control; cells with or without PTN (100 ng/ml, 10 min), RPTPβ/ζ siRNA or peptide B3

binding [1] | binding [2] | binding [3] | Substance
binds |  |  | CDK5 (rat glioma C6 cells) (from UniProt Q03114 1-292) (enzyme)
binds |  |  | p35 (rat glioma C6 cells) (from UniProt P61810 1-307)
 | binds | binds | cyclin-dependent kinase 5 activator 1, p35 (from UniProt Q15078 1-307)
 | binds | binds | cyclin-dependent kinase 5 (from UniProt Q00535 1-292) (enzyme)
